Where a name gives a salt, the structure may show the parent alone. The list shows a part of the results. Hit calls seldom repeat between salt and free forms of one compound.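 Kinases were expressed as nanoluciferase fusions in K562 cells and luminescence was read every 4 h between 2 and 18 h as percent of control, DMSO set to 100% and a positive control to 0%. A time point counts as decreased when the signal drops significantly (2 sigma). The hit call is the authors' own, does not follow from the count of time points alone, and its rule is not shown.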
Tests used:
Assay in all cases: kinase-Nluc reporter destabilization hit call (1 = scored as downregulated) (binary); higher = compound decreases kinase abundance
Settings in all cases: K562; 2-18 h
CDK7 = CDK7 (UniProt P50613)
CDK9 = CDK9 (UniProt P50750)
CHEK2 = CHEK2 (UniProt O96017)
CSF1R = CSF1R (UniProt P07333)
CSK = CSK (UniProt P41240)
CSNK1A1 = CSNK1A1 (UniProt P48729)
CSNK1D = CSNK1D (UniProt P48730)
DDR1 = DDR1 (UniProt Q08345)
DYRK1B = DYRK1B (UniProt Q9Y463)
DYRK2 = DYRK2 (UniProt Q92630)
EGFR = EGFR (UniProt P00533)
EGFR_G719S = EGFR_G719S (UniProt P00533)
EGFR_G719S_T790M = EGFR_G719S_T790M (UniProt P00533)
EGFR_L718V = EGFR_L718V (UniProt P00533)
EGFR_L858R = EGFR_L858R (UniProt P00533)
EGFR_L861Q = EGFR_L861Q (UniProt P00533)
EGFR_T790M = EGFR_T790M (UniProt P00533)
EPHA2 = EPHA2 (UniProt P29317)
ERBB3 = ERBB3 (UniProt P21860)
[1] = molecular target: ERBB4_R711C (clone: ERBB4_mut) (UniProt Q15303)

Amino acid sequences for entries named in this document (tags omitted). A change or cut given only in a name is not applied to a line headed by its entry.
UniProt P50750, whole entry: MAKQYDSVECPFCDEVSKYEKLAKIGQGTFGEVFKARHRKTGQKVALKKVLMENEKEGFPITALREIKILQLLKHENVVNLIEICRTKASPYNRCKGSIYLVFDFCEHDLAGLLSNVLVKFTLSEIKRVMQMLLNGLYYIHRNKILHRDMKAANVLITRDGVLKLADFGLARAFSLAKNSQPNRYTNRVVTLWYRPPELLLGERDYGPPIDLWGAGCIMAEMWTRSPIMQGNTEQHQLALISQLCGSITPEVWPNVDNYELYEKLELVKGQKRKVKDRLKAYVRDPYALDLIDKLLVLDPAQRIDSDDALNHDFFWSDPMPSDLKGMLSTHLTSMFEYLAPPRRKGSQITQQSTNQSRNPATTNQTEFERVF
UniProt O96017, whole entry: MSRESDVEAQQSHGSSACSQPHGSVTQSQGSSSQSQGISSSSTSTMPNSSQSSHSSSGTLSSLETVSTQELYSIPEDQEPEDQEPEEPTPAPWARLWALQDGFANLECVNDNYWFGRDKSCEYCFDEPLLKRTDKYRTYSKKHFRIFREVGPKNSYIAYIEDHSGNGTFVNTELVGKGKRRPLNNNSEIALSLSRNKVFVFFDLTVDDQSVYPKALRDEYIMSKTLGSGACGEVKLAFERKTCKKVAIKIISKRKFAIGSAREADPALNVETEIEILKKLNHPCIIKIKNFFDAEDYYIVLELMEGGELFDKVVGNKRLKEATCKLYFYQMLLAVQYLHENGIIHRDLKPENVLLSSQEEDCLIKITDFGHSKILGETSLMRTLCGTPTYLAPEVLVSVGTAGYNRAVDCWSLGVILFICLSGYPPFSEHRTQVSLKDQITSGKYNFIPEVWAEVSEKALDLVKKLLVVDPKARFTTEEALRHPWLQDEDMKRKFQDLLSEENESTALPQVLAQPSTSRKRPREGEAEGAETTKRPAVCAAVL
UniProt P48729: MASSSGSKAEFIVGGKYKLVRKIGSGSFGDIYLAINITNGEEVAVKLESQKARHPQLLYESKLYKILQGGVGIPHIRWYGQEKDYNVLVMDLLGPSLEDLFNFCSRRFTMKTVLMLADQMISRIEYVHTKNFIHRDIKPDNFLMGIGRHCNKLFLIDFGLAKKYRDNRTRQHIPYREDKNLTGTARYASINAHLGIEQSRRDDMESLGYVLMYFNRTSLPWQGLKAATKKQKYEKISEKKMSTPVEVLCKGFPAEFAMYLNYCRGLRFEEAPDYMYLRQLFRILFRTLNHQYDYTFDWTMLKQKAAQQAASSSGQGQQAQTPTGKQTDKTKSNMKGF
UniProt P48730: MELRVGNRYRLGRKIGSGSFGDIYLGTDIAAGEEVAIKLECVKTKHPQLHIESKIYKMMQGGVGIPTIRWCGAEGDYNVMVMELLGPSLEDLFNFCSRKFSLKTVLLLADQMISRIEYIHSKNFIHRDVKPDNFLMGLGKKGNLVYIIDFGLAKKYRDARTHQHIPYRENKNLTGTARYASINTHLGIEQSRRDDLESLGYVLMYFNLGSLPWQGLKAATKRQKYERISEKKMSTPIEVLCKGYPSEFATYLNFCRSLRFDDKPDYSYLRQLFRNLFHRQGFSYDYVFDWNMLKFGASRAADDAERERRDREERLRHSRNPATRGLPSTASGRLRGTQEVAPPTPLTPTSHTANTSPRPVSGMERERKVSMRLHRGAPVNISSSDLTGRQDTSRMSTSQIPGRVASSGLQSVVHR
UniProt Q9Y463, whole entry, looked up: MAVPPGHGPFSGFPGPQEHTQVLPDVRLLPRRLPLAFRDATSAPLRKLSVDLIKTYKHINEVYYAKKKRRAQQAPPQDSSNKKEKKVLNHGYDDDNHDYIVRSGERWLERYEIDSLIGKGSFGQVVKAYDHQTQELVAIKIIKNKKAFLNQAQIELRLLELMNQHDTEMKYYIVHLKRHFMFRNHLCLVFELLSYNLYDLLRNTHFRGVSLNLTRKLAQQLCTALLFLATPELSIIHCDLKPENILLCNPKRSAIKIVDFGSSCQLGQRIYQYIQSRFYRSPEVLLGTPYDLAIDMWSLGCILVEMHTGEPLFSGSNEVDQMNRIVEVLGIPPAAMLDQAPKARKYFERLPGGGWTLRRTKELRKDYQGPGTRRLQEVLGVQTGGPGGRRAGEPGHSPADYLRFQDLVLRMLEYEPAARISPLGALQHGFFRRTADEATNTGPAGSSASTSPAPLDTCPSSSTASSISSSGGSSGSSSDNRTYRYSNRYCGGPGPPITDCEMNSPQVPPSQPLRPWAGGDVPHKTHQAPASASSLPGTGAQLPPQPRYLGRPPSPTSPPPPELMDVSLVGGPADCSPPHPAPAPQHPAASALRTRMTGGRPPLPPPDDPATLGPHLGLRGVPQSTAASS
UniProt Q92630: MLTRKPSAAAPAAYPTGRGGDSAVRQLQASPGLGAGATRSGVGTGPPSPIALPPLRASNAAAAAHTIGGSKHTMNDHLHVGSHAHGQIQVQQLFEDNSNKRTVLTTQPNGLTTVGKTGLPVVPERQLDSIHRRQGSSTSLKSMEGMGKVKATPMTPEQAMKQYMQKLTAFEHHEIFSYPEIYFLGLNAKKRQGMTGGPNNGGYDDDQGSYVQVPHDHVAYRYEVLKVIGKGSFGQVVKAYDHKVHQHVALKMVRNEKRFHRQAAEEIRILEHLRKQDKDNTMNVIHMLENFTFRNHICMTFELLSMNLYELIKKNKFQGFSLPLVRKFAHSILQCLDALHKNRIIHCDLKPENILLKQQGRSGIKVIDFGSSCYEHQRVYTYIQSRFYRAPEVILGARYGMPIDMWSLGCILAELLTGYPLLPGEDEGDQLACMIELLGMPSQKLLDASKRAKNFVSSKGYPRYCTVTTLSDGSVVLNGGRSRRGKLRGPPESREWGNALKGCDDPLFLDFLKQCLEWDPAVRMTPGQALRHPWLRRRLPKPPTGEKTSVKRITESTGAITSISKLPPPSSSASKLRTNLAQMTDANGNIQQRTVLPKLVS
UniProt P29317, whole entry: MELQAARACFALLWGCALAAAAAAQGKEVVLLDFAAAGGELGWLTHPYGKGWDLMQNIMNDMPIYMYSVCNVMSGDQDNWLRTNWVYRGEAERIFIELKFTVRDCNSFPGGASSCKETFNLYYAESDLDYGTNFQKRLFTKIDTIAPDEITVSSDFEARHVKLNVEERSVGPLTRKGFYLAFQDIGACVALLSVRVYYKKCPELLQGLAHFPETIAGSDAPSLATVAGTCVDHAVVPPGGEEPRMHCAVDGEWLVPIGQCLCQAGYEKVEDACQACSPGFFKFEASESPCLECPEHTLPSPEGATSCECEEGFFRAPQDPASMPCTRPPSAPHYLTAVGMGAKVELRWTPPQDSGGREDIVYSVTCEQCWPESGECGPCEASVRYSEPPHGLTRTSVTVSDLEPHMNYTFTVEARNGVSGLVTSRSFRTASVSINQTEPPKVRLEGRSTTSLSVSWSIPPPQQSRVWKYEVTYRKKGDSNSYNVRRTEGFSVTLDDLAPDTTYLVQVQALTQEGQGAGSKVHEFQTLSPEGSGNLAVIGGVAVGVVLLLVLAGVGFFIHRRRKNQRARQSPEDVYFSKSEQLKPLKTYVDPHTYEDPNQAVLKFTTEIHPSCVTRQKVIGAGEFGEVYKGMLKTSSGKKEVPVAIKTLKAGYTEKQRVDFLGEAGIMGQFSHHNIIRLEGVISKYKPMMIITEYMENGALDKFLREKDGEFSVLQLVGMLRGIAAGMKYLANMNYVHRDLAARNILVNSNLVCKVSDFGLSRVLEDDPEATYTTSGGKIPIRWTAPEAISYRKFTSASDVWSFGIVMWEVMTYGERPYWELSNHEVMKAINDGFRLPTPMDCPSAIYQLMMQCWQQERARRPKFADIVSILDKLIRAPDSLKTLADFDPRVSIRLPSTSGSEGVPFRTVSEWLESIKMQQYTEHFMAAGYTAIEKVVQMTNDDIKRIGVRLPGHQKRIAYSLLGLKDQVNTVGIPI
UniProt P21860, whole entry: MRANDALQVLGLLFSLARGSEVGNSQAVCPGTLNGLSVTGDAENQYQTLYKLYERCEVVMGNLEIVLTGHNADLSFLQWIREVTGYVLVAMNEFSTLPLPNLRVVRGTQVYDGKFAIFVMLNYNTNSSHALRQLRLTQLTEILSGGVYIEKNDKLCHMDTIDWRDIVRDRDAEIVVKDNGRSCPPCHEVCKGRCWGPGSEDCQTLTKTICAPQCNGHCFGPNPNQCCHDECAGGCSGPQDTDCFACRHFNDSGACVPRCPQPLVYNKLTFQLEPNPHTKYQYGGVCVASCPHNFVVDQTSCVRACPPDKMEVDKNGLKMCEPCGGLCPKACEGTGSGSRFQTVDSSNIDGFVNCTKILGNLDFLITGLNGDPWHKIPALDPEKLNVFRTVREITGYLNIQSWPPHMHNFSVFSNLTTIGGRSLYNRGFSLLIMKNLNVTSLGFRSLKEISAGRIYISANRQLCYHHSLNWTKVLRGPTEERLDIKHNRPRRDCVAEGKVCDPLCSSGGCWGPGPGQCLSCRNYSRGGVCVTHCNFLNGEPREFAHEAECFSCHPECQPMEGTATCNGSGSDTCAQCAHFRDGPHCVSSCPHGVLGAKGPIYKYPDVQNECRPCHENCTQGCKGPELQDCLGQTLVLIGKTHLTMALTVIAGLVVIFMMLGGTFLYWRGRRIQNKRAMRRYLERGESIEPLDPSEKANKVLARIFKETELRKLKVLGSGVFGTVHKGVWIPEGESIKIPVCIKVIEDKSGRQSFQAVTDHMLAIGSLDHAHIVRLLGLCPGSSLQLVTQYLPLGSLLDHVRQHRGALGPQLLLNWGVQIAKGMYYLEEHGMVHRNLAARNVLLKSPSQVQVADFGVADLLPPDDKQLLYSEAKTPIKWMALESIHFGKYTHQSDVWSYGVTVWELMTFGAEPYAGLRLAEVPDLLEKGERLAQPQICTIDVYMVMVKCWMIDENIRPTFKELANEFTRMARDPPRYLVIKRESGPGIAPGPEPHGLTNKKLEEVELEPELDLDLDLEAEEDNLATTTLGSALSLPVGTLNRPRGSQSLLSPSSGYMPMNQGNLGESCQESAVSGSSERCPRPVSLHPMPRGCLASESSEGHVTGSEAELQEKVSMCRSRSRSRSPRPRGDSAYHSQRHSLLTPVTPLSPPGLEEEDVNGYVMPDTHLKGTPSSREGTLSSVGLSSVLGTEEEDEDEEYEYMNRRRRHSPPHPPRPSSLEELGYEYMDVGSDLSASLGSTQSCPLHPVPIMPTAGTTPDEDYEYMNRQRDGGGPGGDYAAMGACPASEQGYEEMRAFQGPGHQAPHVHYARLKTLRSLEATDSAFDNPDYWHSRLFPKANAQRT
UniProt Q15303, whole entry R711C: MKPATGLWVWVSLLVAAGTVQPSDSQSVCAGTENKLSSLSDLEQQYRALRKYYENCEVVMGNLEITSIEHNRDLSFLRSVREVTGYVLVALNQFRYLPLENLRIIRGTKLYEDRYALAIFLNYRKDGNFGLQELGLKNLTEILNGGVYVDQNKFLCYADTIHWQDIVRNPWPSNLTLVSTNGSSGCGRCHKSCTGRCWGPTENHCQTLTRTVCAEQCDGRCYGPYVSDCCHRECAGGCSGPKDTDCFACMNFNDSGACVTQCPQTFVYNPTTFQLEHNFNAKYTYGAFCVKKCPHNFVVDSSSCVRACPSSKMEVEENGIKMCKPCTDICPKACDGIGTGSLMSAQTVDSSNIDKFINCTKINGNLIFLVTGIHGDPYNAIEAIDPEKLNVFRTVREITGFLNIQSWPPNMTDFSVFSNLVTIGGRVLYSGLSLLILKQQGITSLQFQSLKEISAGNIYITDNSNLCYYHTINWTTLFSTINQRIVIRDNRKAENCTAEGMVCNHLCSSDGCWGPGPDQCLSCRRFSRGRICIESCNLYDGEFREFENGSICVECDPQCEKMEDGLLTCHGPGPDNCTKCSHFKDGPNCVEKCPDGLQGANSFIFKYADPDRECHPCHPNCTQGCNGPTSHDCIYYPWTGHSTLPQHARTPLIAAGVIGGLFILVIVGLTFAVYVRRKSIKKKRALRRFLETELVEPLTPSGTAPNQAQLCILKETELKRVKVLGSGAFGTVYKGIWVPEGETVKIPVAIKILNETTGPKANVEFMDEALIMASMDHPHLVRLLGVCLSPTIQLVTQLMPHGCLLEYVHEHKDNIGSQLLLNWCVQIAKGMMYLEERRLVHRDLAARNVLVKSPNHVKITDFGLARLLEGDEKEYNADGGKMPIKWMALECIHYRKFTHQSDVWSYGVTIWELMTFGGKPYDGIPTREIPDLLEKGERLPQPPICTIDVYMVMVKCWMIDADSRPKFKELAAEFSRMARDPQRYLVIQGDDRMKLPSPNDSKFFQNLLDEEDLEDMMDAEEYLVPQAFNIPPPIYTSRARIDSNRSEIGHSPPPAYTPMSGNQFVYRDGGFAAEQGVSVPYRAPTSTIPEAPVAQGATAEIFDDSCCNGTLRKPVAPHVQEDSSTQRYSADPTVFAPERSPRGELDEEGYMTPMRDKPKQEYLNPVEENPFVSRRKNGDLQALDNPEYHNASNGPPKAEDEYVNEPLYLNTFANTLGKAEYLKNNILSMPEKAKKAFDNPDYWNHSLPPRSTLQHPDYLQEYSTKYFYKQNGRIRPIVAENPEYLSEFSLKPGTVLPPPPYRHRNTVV

Measured: kinase-Nluc reporter destabilization hit call

C=CC(=O)N1CC[C@@H](Oc2nc(Nc3ccc(N4CCC(N5CCN(C)CC5)CC4)cc3)c(C(N)=O)nc2CC)C1 [Naquotinib (mesylate)] (2.5 µM)
inactive: CDK7 = 0 | CDK9 = 0 | CHEK2 = 0 | CSF1R 0 | CSK 0 | CSNK1A1 = 0 | CSNK1D 0 | DDR1 = 0 | DYRK1B 0 | DYRK2 = 0 | EGFR 0 | EGFR_G719S 0 | EGFR_G719S_T790M 0 | EGFR_L718V 0 | EGFR_L858R 0 | EGFR_L861Q 0 | EGFR_T790M 0 | EPHA2 = 0 | ERBB3 = 0 | [1] 0

CNC(=O)c1ccc2c(c1)ncn2-c1ccc(CC(=O)OC(C)(C)C)cc1 (10 µM)
inactive: CDK7 = 0 | CDK9 = 0 | CHEK2 = 0 | CSF1R 0 | CSK 0 | CSNK1A1 = 0 | CSNK1D 0 | DDR1 = 0 | DYRK1B 0 | DYRK2 = 0 | EGFR 0 | EGFR_G719S 0 | EGFR_G719S_T790M 0 | EGFR_L718V 0 | EGFR_L858R 0 | EGFR_L861Q 0 | EGFR_T790M 0 | EPHA2 = 0 | ERBB3 = 0 | [1] 0

O=c1[nH]ccc2nc(-c3ccc(CN4CCC(c5nc(-c6ccccn6)n[nH]5)CC4)cc3)c(-c3ccccc3)cc12 (10 µM)
inactive: CDK7 = 0 | CDK9 = 0 | CHEK2 = 0 | CSF1R 0 | CSK 0 | CSNK1A1 = 0 | CSNK1D 0 | DDR1 = 0 | DYRK1B 0 | DYRK2 = 0 | EGFR 0 | EGFR_G719S 0 | EGFR_G719S_T790M 0 | EGFR_L718V 0 | EGFR_L858R 0 | EGFR_L861Q 0 | EGFR_T790M 0 | EPHA2 = 0 | ERBB3 = 0 | [1] 0

Fc1ccc2[nH]ccc2c1-c1nc(N2CCOCC2)c2sc(CN3CCN(CC4CC4)CC3)cc2n1 (10 µM)
inactive: CDK7 = 0 | CDK9 = 0 | CHEK2 = 0 | CSF1R 0 | CSK 0 | CSNK1A1 = 0 | CSNK1D 0 | DDR1 = 0 | DYRK1B 0 | DYRK2 = 0 | EGFR 0 | EGFR_G719S 0 | EGFR_G719S_T790M 0 | EGFR_L718V 0 | EGFR_L858R 0 | EGFR_L861Q 0 | EGFR_T790M 0 | EPHA2 = 0 | ERBB3 = 0 | [1] 0

Cn1cc(-c2cc(Oc3cc(F)c(NC(=O)C4(C(=O)Nc5ccccc5)CC4)cc3F)ccn2)cn1 (2.5 µM)
inactive: CDK7 = 0 | CDK9 = 0 | CHEK2 = 0 | CSF1R 0 | CSK 0 | CSNK1A1 = 0 | CSNK1D 0 | DDR1 = 0 | DYRK1B 0 | DYRK2 = 0 | EGFR 0 | EGFR_G719S 0 | EGFR_G719S_T790M 0 | EGFR_L718V 0 | EGFR_L858R 0 | EGFR_L861Q 0 | EGFR_T790M 0 | EPHA2 = 0 | ERBB3 = 0 | [1] 0

c1nn(C2CCOCC2)cc1Nc1ncc2nnn(-c3ccc4cn[nH]c4c3)c2n1 (10 µM)
inactive: CDK7 = 0 | CDK9 = 0 | CHEK2 = 0 | CSF1R 0 | CSK 0 | CSNK1A1 = 0 | CSNK1D 0 | DDR1 = 0 | DYRK1B 0 | DYRK2 = 0 | EGFR 0 | EGFR_G719S 0 | EGFR_G719S_T790M 0 | EGFR_L718V 0 | EGFR_L858R 0 | EGFR_L861Q 0 | EGFR_T790M 0 | EPHA2 = 0 | ERBB3 = 0 | [1] 0

N#Cc1cnc2c(Cl)cc(NCc3cn(CCN4CCCCCC4)nn3)cc2c1Nc1ccc(F)c(Cl)c1 [Cot inhibitor-1] (10 µM)
inactive: CDK7 = 0 | CDK9 = 0 | CHEK2 = 0 | CSF1R 0 | CSK 0 | CSNK1A1 = 0 | CSNK1D 0 | DDR1 = 0 | DYRK1B 0 | DYRK2 = 0 | EGFR 0 | EGFR_G719S 0 | EGFR_G719S_T790M 0 | EGFR_L718V 0 | EGFR_L858R 0 | EGFR_L861Q 0 | EGFR_T790M 0 | EPHA2 = 0 | ERBB3 = 0 | [1] 0

Cc1cc(C)cc(NC(N)=Nc2ccccc2C(F)(F)F)c1 (10 µM)
inactive: CDK7 = 0 | CDK9 = 0 | CHEK2 = 0 | CSF1R 0 | CSK 0 | CSNK1A1 = 0 | CSNK1D 0 | DDR1 = 0 | DYRK1B 0 | DYRK2 = 0 | EGFR 0 | EGFR_G719S 0 | EGFR_G719S_T790M 0 | EGFR_L718V 0 | EGFR_L858R 0 | EGFR_L861Q 0 | EGFR_T790M 0 | EPHA2 = 0 | ERBB3 = 0 | [1] 0

O=c1cc(-c2ccccc2)oc2cc(O[C@@H]3O[C@H](CO[C@@H]4O[C@H](CO)[C@@H](O)[C@H](O)[C@H]4O)[C@@H](O)[C@H](O)[C@H]3O)c(O)c(O)c12 [Oroxin B] (10 µM)
inactive: CDK7 = 0 | CDK9 = 0 | CHEK2 = 0 | CSF1R 0 | CSK 0 | CSNK1A1 = 0 | CSNK1D 0 | DDR1 = 0 | DYRK1B 0 | DYRK2 = 0 | EGFR 0 | EGFR_G719S 0 | EGFR_G719S_T790M 0 | EGFR_L718V 0 | EGFR_L858R 0 | EGFR_L861Q 0 | EGFR_T790M 0 | EPHA2 = 0 | ERBB3 = 0 | [1] 0

COC(=O)Nc1ccc(-c2nc(N3CCOCC3)c3cnn(C4CCN(C(=O)OC)CC4)c3n2)cc1 (10 µM)
inactive: CDK7 = 0 | CDK9 = 0 | CHEK2 = 0 | CSF1R 0 | CSK 0 | CSNK1A1 = 0 | CSNK1D 0 | DDR1 = 0 | DYRK1B 0 | DYRK2 = 0 | EGFR 0 | EGFR_G719S 0 | EGFR_G719S_T790M 0 | EGFR_L718V 0 | EGFR_L858R 0 | EGFR_L861Q 0 | EGFR_T790M 0 | EPHA2 = 0 | ERBB3 = 0 | [1] 0

CC1(N)CCN(c2cccnc2NC(=O)c2nc(-c3ncccc3C(F)(F)F)cnc2N)CC1 [Darovasertib] (10 µM)
inactive: CDK7 = 0 | CDK9 = 0 | CHEK2 = 0 | CSF1R 0 | CSK 0 | CSNK1A1 = 0 | CSNK1D 0 | DDR1 = 0 | DYRK1B 0 | DYRK2 = 0 | EGFR 0 | EGFR_G719S 0 | EGFR_G719S_T790M 0 | EGFR_L718V 0 | EGFR_L858R 0 | EGFR_L861Q 0 | EGFR_T790M 0 | EPHA2 = 0 | ERBB3 = 0 | [1] 0

C=CC(=O)Nc1cc(Nc2nccc(-c3cn(C)c4ccccc34)n2)c(OC)cc1N(C)CCNC [AZ7550 Mesylate] (2.5 µM)
inactive: CDK7 = 0 | CDK9 = 0 | CHEK2 = 0 | CSF1R 0 | CSK 0 | CSNK1A1 = 0 | CSNK1D 0 | DDR1 = 0 | DYRK1B 0 | DYRK2 = 0 | EGFR 0 | EGFR_G719S 0 | EGFR_G719S_T790M 0 | EGFR_L718V 0 | EGFR_L858R 0 | EGFR_L861Q 0 | EGFR_T790M 0 | EPHA2 = 0 | ERBB3 = 0 | [1] 0

COc1cc2ncnc(Nc3cccc(I)c3)c2cc1OC (2.5 µM)
inactive: CDK7 = 0 | CDK9 = 0 | CHEK2 = 0 | CSF1R 0 | CSK 0 | CSNK1A1 = 0 | CSNK1D 0 | DDR1 = 0 | DYRK1B 0 | DYRK2 = 0 | EGFR 0 | EGFR_G719S 0 | EGFR_G719S_T790M 0 | EGFR_L718V 0 | EGFR_L858R 0 | EGFR_L861Q 0 | EGFR_T790M 0 | EPHA2 = 0 | ERBB3 = 0 | [1] 0

O=C1NC(=O)/C(=C\c2c[nH]c(=O)c(-c3ccc(N4CCNCC4)nc3)c2)S1 [Protein kinase inhibitors 1 hydrochloride] (10 µM)
inactive: CDK7 = 0 | CDK9 = 0 | CHEK2 = 0 | CSF1R 0 | CSK 0 | CSNK1A1 = 0 | CSNK1D 0 | DDR1 = 0 | DYRK1B 0 | DYRK2 = 0 | EGFR 0 | EGFR_G719S 0 | EGFR_G719S_T790M 0 | EGFR_L718V 0 | EGFR_L858R 0 | EGFR_L861Q 0 | EGFR_T790M 0 | EPHA2 = 0 | ERBB3 = 0 | [1] 0

Cc1cccc(-c2[nH]ncc2-c2ccnc3ccccc23)n1 (10 µM)
inactive: CDK7 = 0 | CDK9 = 0 | CHEK2 = 0 | CSF1R 0 | CSK 0 | CSNK1A1 = 0 | CSNK1D 0 | DDR1 = 0 | DYRK1B 0 | DYRK2 = 0 | EGFR 0 | EGFR_G719S 0 | EGFR_G719S_T790M 0 | EGFR_L718V 0 | EGFR_L858R 0 | EGFR_L861Q 0 | EGFR_T790M 0 | EPHA2 = 0 | ERBB3 = 0 | [1] 0

O=C(c1cccc(Cl)c1F)N1CCN(Cc2cccc(Nc3nccs3)n2)CC1 (2.5 µM)
inactive: CDK7 = 0 | CDK9 = 0 | CHEK2 = 0 | CSF1R 0 | CSK 0 | CSNK1A1 = 0 | CSNK1D 0 | DDR1 = 0 | DYRK1B 0 | DYRK2 = 0 | EGFR 0 | EGFR_G719S 0 | EGFR_G719S_T790M 0 | EGFR_L718V 0 | EGFR_L858R 0 | EGFR_L861Q 0 | EGFR_T790M 0 | EPHA2 = 0 | ERBB3 = 0 | [1] 0

Quoted at random: 2 records from the list
O=c1[nH]ccc2nc(-c3ccc(CN4CCC(c5nc(-c6ccccn6)n[nH]5)CC4)cc3)c(-c3ccccc3)cc12 (10 µM)
inactive: CDK7 = 0 | CDK9 = 0 | CHEK2 = 0 | CSF1R 0 | CSK 0 | CSNK1A1 = 0 | CSNK1D 0 | DDR1 = 0 | DYRK1B 0 | DYRK2 = 0 | EGFR 0 | EGFR_G719S 0 | EGFR_G719S_T790M 0 | EGFR_L718V 0 | EGFR_L858R 0 | EGFR_L861Q 0 | EGFR_T790M 0 | EPHA2 = 0 | ERBB3 = 0 | [1] 0

CNC(=O)c1ccc2c(c1)ncn2-c1ccc(CC(=O)OC(C)(C)C)cc1 (10 µM)
inactive: CDK7 = 0 | CDK9 = 0 | CHEK2 = 0 | CSF1R 0 | CSK 0 | CSNK1A1 = 0 | CSNK1D 0 | DDR1 = 0 | DYRK1B 0 | DYRK2 = 0 | EGFR 0 | EGFR_G719S 0 | EGFR_G719S_T790M 0 | EGFR_L718V 0 | EGFR_L858R 0 | EGFR_L861Q 0 | EGFR_T790M 0 | EPHA2 = 0 | ERBB3 = 0 | [1] 0

Continuation.

Cc1cccc(COc2cccc(/C=C3\C(=O)NN(c4ccccc4)C3=O)c2)c1 (10 µM)
inactive: CDK7 = 0 | CDK9 = 0 | CHEK2 = 0 | CSF1R 0 | CSK 0 | CSNK1A1 = 0 | CSNK1D 0 | DDR1 = 0 | DYRK1B 0 | DYRK2 = 0 | EGFR 0 | EGFR_G719S 0 | EGFR_G719S_T790M 0 | EGFR_L718V 0 | EGFR_L858R 0 | EGFR_L861Q 0 | EGFR_T790M 0 | EPHA2 = 0 | ERBB3 = 0 | [1] 0

COc1cc2ncnc(Oc3ccc(CC(=O)Nc4cnn(C(C)C)c4)cc3)c2cc1OC (10 µM)
inactive: CDK7 = 0 | CDK9 = 0 | CHEK2 = 0 | CSF1R 0 | CSK 0 | CSNK1A1 = 0 | CSNK1D 0 | DDR1 = 0 | DYRK1B 0 | DYRK2 = 0 | EGFR 0 | EGFR_G719S 0 | EGFR_G719S_T790M 0 | EGFR_L718V 0 | EGFR_L858R 0 | EGFR_L861Q 0 | EGFR_T790M 0 | EPHA2 = 0 | ERBB3 = 0 | [1] 0

— the supplement of paper PMC12823440, “Inhibitors supercharge kinase turnover through native proteolytic circuits” (Nature, 2025)
